PubChem BioAssay AID504386 (National Center for Advancing Translational Sciences (NCATS), 2011)
Values joined by “and” are separate entries in the source; they are usually repeats but may differ in a detail not shown here. Equal entries are not always repeated. This list was built around the results that the source calls inconclusive (neither active nor inactive); the mix of calls is not that of the screen. Potencies of inconclusive entries are doubtful fits and often do not repeat. Active and inactive are the calls of the source. Calls come from the whole dose curve; as a rule, active = well fitted curve in the direction sought with a large enough effect; inconclusive = small, poorly fitted or top-dose-only effect, or another doubt; inactive = no such curve, though single readings can be large or run the other way.

By UniProt entry, the sequences of proteins in these tests, tags left out.
UniProt Q01196, whole entry, looked up: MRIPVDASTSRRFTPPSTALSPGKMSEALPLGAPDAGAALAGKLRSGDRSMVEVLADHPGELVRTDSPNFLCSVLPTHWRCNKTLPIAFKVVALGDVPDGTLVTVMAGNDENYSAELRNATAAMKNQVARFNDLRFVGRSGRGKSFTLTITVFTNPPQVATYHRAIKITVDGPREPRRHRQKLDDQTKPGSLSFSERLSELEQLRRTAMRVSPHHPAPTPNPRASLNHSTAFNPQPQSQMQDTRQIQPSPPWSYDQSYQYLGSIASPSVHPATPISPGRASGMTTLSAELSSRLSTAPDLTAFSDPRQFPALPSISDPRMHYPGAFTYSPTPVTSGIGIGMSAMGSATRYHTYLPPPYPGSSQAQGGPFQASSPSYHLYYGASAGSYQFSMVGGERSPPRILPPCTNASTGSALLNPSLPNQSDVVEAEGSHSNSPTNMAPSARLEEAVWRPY
UniProt Q13951, whole entry, looked up: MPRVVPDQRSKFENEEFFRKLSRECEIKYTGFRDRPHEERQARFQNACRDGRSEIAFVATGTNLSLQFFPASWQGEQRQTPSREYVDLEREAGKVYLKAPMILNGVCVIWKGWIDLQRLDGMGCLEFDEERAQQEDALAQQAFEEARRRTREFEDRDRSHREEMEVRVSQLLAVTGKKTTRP

These compounds were tested against Runt-related transcription factor 1 (Homo sapiens) + Core-binding factor subunit beta (Homo sapiens) (UniProt Q01196+Q13951) (assay: qHTS Assay for Compounds Blocking the Interaction Between CBF-beta and RUNX1 for the Treatment of Acute Myeloid Leukemia: SAR for Probe). Conditions: AlphaScreen CBFb-His/RUNX1-biotin binding, biochemical; series mostly up to 136 µM.
Source text: NIH Chemical Genomics Center [NCGC] NIH Molecular Libraries Probe Production centers Network [MLPCN] MLPCN Grant: X01MH083259-01 Assay Submitter (PI): Paul Liu NCGC Assay Overview: Core Binding Factor (CBF) abnormalities are associated with 20-25% of all acute myeloid leukemias (AML), of which 5-10% are further sub classified as acute myelomonocytic leukemia with eosinophilia, also known as M4Eo in the FAB classification scheme. This subtype of leukemia is usually associated with chromosome 16 inversion (p13:q22). Chromosome 16 inversion results in formation of the fusion oncogene CBFB-MYH11, which encodes the fusion protein CBF-beta-SMMHC. […] It has been hypothesized that the interference of CBF-beta and RUNX1 binding could have therapeutic implications for patients with CBF mediated leukemias. We developed a CBF-beta and RUNX1 binding assay in AlphaScreenTM format and optimized it for high throughput screening to search for inhibitors. The goal of this project is to screen MLPCN's compound collection (MLSMR) for identifying the inhibitors of the interaction between CBF-beta and RUNX1 proteins as research probes. If these probes work well in the animal models, the ultimate goal of this project is to development a new drug treatment for this disease. This assay can not be used to assess how apparent inhibitors interfere with protein binding, and whether inhibitors specifically bind to either protein. Disruption of this protein-protein interaction, through any mechanism, is the intended target activity. The present data set was run to confirm the activity of analogs to the probe in the primary screening assay.
NCGC Assay Protocol Summary: Step, Parameter, Description (1) Reagent, 3 uL CBFb-His/RUNX1-biotin mix incubated together for 20 minutes at room temperature (30 nM each) (2) Compound or control, 23 nL compound stock solution (3) Incubation, 15 minutes at Room temperature (4) Reagent, 1 uL 50 ng each of beads (Nickel beads and streptavidin beads) (5) Incubation, 90 minutes at Room temperature (6) Detection, […], Envision reader in AlphaScreenTM mode Keywords: MLSMR, MLPCN, NIH Roadmap, qHTS, NCGC, Core binding factor, CBF, CBF-beta, Acute myeloid leukemia

| SMILES | Potency |
| --- | --- |
| CN(C)CC(=O)Nc1ccc(Cl)cc1C(=O)c1ccc[nH]1 | inconclusive: 74.3 µM [inhibitor, partial curve, poor fit] |
| C[C@@H](N)C(=O)Nc1ccc(Cl)cc1C(=O)c1ccc[nH]1 | inconclusive: 74.3 µM [inhibitor, partial curve, poor fit] |
| CC(C)[C@H](N)C(=O)Nc1ccc(Cl)cc1C(=O)c1ccc[nH]1 | inactive |
| Nc1ccc(Cl)cc1C(=O)c1ccc[nH]1 | inconclusive: 43.4 µM [inhibitor, full curve] and inconclusive: 235 µM [inhibitor, partial curve] |
| NCCCC[C@H](N)C(=O)Nc1ccc(Cl)cc1C(=O)c1ccc[nH]1 | inactive |
| O=C(c1ccc[nH]1)c1cc(Cl)ccc1NC(=O)[C@@H]1CCCN1 | inconclusive: 235 µM [inhibitor, partial curve, poor fit] |
| N[C@@H](CC(=O)O)C(=O)Nc1ccc(Cl)cc1C(=O)c1ccc[nH]1 | inconclusive: 66.2 µM [inhibitor, partial curve, poor fit] |
| N[C@@H](CCC(=O)O)C(=O)Nc1ccc(Cl)cc1C(=O)c1ccc[nH]1 | inconclusive: 296 µM [inhibitor, partial curve, poor fit] |
| N[C@H](Cc1ccccc1)C(=O)Nc1ccc(Cl)cc1C(=O)c1ccc[nH]1 | inconclusive: 662 µM [inhibitor, partial curve, poor fit] |
| N[C@@H](CO)C(=O)Nc1ccc(Cl)cc1C(=O)c1ccc[nH]1 | inconclusive: 105 µM [inhibitor, single point] |
| N[C@@H](Cc1ccccc1)C(=O)Nc1ccc(Cl)cc1C(=O)c1ccc[nH]1 | inconclusive: 235 µM [inhibitor, partial curve] |
| NC(N)=NCCC[C@H](N)C(=O)Nc1ccc(Cl)cc1C(=O)c1ccc[nH]1 | inconclusive: 59 µM [inhibitor, partial curve, poor fit] |
| NCCCCC(=O)Nc1ccc(Cl)cc1C(=O)c1ccc[nH]1 | inconclusive: 74.3 µM [activator, partial curve] |
| NCCCC(=O)Nc1ccc(Cl)cc1C(=O)c1ccc[nH]1 | inconclusive: 83.3 µM [inhibitor, single point] |
| C[C@H](N)C(=O)Nc1ccc(Cl)cc1C(=O)c1ccc[nH]1 | inactive |
| CC(C)(N)C(=O)Nc1ccc(Cl)cc1C(=O)c1ccc[nH]1 | inconclusive: 264 µM [inhibitor, partial curve, poor fit] |
| N[C@H](C(=O)Nc1ccc(Cl)cc1C(=O)c1ccc[nH]1)c1ccccc1 | inconclusive: 52.6 µM [inhibitor, partial curve] |
| NC(=O)C[C@H](N)C(=O)Nc1ccc(Cl)cc1C(=O)c1ccc[nH]1 | inconclusive: 209 µM [inhibitor, single point] |
| NCC(=O)Nc1ccc(Cl)cc1C(=O)c1ccc[nH]1 | active: 29.6 µM |
| CC(=O)Nc1ccc(Cl)cc1C(=O)c1ccc[nH]1 | inconclusive: 97.1 µM [inhibitor, partial curve] and inconclusive: 83.3 µM [inhibitor, single point] |
| NCCC(=O)Nc1ccc(Cl)cc1C(=O)c1ccc[nH]1 | inactive |
| CNCc1nc(-c2ccc[nH]2)c2cc(Cl)ccc2n1 | inconclusive: 14.8 µM [inhibitor, full curve] |
| CCc1sc(N)nc1-c1ccc(OC)cc1 | inconclusive: 0.0013 µM [activator] |
| CNCC(=O)Nc1ccc(Cl)cc1C(=O)c1ccc[nH]1 | inconclusive: 148 µM [inhibitor, partial curve] |
| CCC(=O)Nc1ccc(Cl)cc1C(=O)c1ccc[nH]1 | inactive |

Given field by field: 2 of the compounds above.
NCCCCC(=O)Nc1ccc(Cl)cc1C(=O)c1ccc[nH]1
  Potency: inconclusive: 74.3 µM [activator, partial curve]
CCC(=O)Nc1ccc(Cl)cc1C(=O)c1ccc[nH]1
  Potency: inactive
